Reference: article PMC12915160
Results are given in words; binding and its absence hold for the method and conditions named. In cells and extracts the contact can be indirect. A yes stands for co-enrichment or nearness to the bait. Other partners may have been found.

Chains of the proteins cited; added tags and fusions are not shown.
UniProt Q27991: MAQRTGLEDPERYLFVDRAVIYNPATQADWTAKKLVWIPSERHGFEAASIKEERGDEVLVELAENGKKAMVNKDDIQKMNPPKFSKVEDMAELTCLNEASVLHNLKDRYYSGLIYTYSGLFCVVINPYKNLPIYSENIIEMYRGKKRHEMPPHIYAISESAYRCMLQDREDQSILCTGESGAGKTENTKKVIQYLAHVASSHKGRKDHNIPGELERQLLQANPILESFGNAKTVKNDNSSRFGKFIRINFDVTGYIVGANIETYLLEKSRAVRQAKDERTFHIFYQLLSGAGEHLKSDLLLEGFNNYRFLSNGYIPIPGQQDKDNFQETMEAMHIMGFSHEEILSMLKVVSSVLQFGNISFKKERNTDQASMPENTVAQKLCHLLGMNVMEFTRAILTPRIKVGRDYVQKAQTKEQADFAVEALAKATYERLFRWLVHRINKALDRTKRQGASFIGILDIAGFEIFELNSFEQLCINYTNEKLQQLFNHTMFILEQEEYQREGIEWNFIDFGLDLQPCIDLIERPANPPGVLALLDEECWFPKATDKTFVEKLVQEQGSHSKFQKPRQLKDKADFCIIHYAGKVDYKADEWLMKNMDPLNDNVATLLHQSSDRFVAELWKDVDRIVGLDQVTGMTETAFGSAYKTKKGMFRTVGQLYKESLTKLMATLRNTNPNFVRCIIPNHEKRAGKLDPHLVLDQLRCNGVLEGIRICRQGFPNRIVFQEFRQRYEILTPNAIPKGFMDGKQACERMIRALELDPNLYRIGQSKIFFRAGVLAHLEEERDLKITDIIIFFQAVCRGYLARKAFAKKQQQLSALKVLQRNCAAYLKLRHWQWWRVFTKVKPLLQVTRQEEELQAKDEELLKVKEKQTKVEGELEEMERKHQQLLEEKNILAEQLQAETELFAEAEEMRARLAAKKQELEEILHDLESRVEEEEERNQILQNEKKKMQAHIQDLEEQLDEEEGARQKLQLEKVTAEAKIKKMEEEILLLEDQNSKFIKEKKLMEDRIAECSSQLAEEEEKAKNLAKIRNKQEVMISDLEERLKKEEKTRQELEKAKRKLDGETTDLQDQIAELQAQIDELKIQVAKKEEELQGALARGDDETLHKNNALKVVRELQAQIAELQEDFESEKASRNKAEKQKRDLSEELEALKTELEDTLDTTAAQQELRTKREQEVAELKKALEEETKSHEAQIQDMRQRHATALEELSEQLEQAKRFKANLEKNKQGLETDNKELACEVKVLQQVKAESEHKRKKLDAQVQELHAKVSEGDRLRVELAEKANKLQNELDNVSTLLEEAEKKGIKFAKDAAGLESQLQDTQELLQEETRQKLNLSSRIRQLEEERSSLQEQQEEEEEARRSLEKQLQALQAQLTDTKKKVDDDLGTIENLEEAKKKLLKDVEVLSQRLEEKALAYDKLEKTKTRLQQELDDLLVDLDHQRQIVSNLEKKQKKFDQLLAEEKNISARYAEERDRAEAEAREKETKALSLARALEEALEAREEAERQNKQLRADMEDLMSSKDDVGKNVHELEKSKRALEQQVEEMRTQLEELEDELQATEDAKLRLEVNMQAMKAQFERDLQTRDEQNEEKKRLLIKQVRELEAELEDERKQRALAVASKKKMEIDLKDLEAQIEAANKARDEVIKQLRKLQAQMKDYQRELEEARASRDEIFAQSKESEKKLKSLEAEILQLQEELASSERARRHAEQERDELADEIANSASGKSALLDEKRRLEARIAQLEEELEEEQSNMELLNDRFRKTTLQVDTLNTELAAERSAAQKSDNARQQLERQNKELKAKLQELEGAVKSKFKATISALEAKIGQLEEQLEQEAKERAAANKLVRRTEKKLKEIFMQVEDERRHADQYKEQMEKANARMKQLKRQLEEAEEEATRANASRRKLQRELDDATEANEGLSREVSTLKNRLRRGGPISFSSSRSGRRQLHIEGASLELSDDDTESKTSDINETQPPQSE
UniProt P85100: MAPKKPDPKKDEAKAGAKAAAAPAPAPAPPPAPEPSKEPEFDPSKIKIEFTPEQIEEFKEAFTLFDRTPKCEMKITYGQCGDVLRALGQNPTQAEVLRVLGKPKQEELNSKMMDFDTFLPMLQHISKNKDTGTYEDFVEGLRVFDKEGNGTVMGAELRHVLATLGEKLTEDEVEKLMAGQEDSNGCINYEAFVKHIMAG

Biological target: MYH10 (non‐muscle myosin IIB) (bovine (endogenous in bovine MuSCs)) (UniProt Q27991)
Assay: affinity purification with mass spectrometry; Co-IP targeting MYH10 followed by mass spectrometry; 180 interacting proteins identified

binding: binds
Substance: MYL3 (myosin light chain family member) (from UniProt P85100 1-199)
